This assay deals with T1, Human SRGN, overexpression construct (pLVX-puro) (human) (UniProt P10124).
T1 sequence: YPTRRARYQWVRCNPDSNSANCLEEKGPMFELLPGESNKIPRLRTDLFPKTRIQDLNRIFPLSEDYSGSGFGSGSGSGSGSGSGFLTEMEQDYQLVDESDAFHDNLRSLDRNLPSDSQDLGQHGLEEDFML
The assay is described as follows: co-IP; reciprocal co-IP of SRGN with CD44s or CD44v3-v10 (Supplementary Fig. S4B-E); cells and tags not shown.

Chains of the proteins cited; added tags and fusions are not shown. Lines headed by an entry give the natural chain unless they say otherwise; changes in a name come on top. A line that says so, or that is headed by a name, gives the form on record, which may keep a tag or linker.
CD44 standard isoform (CD44s), human, overexpression construct (pCDNA3.1) (P16070-12, form named): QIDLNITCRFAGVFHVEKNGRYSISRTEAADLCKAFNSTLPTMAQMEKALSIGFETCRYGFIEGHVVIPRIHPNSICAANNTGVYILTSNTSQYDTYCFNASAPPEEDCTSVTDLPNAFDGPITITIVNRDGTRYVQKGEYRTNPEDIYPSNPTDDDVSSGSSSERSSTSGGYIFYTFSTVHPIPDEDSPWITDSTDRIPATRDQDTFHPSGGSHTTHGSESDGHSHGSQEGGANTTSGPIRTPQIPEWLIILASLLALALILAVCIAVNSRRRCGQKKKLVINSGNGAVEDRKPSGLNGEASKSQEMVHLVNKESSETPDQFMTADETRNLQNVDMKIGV
CD44 variant isoform (CD44v3-v10), human, overexpression construct (pCDNA3.1) (P16070-4, form named): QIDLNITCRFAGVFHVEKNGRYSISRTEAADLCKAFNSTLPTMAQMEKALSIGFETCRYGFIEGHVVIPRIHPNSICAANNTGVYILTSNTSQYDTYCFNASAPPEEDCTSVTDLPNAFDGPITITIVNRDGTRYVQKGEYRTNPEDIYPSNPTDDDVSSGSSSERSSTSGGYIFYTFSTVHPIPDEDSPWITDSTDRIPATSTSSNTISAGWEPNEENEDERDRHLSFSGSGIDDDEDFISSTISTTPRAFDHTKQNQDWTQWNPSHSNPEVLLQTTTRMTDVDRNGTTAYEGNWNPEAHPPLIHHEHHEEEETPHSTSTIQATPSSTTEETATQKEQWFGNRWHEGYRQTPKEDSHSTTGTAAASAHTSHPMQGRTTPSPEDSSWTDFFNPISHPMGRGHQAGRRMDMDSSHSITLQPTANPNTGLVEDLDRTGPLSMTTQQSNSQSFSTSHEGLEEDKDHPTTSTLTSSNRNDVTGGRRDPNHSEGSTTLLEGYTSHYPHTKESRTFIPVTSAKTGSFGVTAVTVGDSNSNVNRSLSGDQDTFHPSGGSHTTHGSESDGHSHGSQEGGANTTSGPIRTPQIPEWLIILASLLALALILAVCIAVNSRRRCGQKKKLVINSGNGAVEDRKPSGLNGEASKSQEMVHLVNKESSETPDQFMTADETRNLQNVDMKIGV

These are yes or no findings as the source states them, for the method shown. Binding seen in cells or lysates may run through a third protein. Some results given as binding are weak or reduced against the parent protein; the word gives no strength.

Turning to “CD44 standard isoform (CD44s), human, overexpression construct (pCDNA3.1) (from UniProt P16070-12 21-361) (receptor)”, the binding entry is “binds”.
As for “CD44 variant isoform (CD44v3-v10), human, overexpression construct (pCDNA3.1) (from UniProt P16070-4 21-699) (receptor)”, the entry is “binds”.

For the origin of these results see paper PMC8460728.
